Consider one molecule from paper PMC10121161.

Chains of the proteins cited; added tags and fusions are not shown.
UniProt Q09065: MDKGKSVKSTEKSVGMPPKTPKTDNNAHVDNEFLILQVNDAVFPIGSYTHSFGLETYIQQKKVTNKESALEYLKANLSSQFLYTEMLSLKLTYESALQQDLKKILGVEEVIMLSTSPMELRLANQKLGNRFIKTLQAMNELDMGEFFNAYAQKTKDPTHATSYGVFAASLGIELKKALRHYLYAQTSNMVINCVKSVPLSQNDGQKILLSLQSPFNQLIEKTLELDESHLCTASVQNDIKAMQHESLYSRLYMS

Results are given in words; binding and its absence hold for the method and conditions named. Some results given as binding are weak or reduced against the parent protein; the word gives no strength. Sequences can lack the tags named with a protein.

The experiment has as its target HisGST-HpUreF (Helicobacter pylori) (UniProt Q09065). In words: co-purification (Ni-chelating affinity chromatography); HisGST-HpUreF coexpressed with HpUreD (WT/variant) in E. coli; lysate loaded on HisTrap with 45 mM imidazole in 20 mM Hepes, 200 mM NaCl, 1 mM TCEP-HCl (pH 7.5); eluted with 300 mM imidazole.

B1: HpUreD, untagged, from pHpUreH (protein, UniProt Q09067 1-265)
chain: MNTYAQESKLRLKTKIGADGRCVIEDNFFTPPFKLMAPFYPKDDLAEIMLLAVSPGMMRGDAQDVQLNIGPNCKLRITSQSFEKIHNTEDGFASRDMHIVVGENAFLDFAPFPLIPFENAHFKGNTTISLRSSSQLLYSEIIVAGRVARNELFKFNRLHTKISILQDEKPIYYDNTILDPKTTDLNNMCMFDGYTHYLNLVLVNCPIELSGVRECIEESEGVDGAVSETASSHLCVKALAKGSEPLLHLREKIARLVTQTTTQKV
As for B1, the binding entry was “binds”.
